Some of the results follow. Most values lie at the level of the controls, where differences are scatter.
Experiments:
Assay in all cases: log2 fold change of tryptic peptide abundance, ligand vs vehicle (limited proteolysis) (log2 ratio); higher = more trypsin-susceptible (destabilized)
[1] = target: T1, IVNS1ABP (UniProt Q9Y6Y0); settings: peptide sequence: SGQFCDVR; peptide start residue: 28; ligand concentration: 5 uM; sample: K562 cleared lysate
T1 sequence (whole entry): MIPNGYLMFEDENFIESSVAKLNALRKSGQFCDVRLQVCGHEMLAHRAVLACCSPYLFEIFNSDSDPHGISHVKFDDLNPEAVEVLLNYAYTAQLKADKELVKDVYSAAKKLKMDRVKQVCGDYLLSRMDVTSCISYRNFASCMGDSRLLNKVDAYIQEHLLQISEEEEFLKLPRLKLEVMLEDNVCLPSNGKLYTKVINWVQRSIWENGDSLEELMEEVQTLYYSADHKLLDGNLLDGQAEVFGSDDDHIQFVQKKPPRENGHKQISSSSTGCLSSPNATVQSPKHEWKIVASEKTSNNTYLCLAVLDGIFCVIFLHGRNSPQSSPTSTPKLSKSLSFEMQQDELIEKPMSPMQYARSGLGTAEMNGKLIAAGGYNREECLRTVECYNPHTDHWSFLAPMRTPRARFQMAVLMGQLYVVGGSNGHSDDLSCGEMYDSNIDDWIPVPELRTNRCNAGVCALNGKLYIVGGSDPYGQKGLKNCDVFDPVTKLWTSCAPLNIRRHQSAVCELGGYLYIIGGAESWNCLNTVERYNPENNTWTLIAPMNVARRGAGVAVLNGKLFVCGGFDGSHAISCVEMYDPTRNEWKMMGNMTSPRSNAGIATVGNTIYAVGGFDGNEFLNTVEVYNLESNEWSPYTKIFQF

[2] = target: T2, MORC2 (UniProt Q9Y6X9); settings: peptide sequence: AKASEESLR; peptide start residue: 973; ligand concentration: 5 uM; sample: K562 cleared lysate
T2 sequence (whole entry): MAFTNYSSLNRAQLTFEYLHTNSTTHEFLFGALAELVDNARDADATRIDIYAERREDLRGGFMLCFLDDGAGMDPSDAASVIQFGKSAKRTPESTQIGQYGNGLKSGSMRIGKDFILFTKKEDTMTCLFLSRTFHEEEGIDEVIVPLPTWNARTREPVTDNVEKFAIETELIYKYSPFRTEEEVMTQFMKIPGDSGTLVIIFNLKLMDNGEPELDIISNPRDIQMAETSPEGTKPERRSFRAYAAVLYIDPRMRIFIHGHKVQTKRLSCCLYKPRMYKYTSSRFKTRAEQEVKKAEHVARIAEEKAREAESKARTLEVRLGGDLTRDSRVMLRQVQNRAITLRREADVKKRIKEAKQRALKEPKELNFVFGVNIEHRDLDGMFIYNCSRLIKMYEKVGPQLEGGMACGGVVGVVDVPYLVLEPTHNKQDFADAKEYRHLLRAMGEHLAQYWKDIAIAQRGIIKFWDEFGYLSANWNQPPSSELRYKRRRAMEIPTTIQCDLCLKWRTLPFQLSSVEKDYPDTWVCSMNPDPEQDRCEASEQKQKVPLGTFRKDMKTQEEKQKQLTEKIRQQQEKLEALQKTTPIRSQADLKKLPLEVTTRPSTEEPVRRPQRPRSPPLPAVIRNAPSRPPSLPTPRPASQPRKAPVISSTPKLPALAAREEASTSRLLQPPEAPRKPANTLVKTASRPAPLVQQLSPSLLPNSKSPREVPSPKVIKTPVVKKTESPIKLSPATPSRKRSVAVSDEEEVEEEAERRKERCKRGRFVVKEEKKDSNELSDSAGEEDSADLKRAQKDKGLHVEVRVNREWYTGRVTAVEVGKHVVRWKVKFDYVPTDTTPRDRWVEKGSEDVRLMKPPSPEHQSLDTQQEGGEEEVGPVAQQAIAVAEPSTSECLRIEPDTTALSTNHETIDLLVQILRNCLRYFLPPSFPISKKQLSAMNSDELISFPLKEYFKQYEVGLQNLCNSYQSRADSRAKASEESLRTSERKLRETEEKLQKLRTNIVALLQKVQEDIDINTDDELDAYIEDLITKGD

[3] = target: T3, SEC23IP (UniProt Q9Y6Y8); settings: peptide sequence: RLEFPSGETIVMHNPK; peptide start residue: 382; ligand concentration: 5 uM; sample: K562 cleared lysate
T3 sequence (whole entry): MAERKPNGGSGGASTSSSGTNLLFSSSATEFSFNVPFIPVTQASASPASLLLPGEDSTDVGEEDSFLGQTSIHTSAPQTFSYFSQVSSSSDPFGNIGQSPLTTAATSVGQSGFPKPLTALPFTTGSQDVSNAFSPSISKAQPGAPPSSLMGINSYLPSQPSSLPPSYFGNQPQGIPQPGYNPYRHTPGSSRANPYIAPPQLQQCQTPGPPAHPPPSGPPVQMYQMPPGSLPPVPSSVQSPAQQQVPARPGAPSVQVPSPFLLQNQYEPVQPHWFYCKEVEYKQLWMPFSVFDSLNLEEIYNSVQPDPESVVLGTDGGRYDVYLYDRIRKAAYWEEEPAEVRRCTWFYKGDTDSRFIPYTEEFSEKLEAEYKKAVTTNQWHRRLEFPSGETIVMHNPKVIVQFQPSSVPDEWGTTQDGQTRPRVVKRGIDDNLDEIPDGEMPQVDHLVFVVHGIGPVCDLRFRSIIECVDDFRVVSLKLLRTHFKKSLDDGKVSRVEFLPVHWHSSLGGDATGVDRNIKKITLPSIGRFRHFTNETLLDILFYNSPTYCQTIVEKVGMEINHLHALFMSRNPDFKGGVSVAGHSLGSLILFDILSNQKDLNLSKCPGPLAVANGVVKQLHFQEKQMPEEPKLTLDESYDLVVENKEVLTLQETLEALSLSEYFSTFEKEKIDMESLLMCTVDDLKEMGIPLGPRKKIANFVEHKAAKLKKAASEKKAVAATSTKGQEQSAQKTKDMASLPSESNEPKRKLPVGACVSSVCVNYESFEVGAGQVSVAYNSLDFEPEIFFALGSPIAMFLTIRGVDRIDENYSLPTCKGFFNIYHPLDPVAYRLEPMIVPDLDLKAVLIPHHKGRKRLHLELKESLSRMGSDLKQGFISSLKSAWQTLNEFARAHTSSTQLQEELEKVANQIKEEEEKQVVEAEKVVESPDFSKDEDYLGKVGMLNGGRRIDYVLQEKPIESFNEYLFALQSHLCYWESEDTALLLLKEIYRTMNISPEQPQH

## Cc1nc(Nc2ncc(C(=O)Nc3c(C)cccc3Cl)s2)cc(N2CCN(CCO)CC2)n1 [dasatinib]
[1]
  log2 fold change: 0.114
[2]
  log2 fold change: -0.204
[3]
  log2 fold change: -0.328
